Measurements as given in paper doi:10.1101/322610.

The chains behind the UniProt entries cited, without tags or fusion partners. Where a name states a change or a piece, a line headed by the entry shows the natural chain unless it says otherwise.
UniProt P10417: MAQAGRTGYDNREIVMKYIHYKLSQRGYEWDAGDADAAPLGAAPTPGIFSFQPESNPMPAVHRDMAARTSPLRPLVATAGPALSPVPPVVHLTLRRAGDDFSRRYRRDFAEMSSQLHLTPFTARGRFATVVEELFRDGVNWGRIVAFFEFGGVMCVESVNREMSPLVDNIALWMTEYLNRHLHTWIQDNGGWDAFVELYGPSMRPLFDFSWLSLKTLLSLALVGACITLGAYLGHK
UniProt P06537: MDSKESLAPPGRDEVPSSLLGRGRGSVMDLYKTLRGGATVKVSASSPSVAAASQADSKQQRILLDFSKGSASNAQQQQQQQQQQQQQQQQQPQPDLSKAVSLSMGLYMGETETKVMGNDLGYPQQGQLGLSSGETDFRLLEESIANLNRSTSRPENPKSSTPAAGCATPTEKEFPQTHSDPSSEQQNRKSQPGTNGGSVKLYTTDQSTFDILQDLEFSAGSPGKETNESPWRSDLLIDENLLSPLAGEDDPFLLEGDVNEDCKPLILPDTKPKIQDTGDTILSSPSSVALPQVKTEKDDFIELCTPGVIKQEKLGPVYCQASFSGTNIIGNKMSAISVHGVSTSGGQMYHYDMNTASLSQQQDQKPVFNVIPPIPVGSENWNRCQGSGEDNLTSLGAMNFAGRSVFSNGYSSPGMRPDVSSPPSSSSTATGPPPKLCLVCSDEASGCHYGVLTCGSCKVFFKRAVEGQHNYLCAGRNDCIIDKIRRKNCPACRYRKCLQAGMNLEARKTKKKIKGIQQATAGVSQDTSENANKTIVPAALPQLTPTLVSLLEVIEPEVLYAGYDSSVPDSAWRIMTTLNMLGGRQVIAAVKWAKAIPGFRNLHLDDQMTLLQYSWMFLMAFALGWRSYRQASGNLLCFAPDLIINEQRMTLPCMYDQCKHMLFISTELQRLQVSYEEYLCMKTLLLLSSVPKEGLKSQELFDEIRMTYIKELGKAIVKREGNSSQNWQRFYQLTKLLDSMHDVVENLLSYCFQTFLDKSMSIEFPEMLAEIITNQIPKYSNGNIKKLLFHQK
UniProt Q60932: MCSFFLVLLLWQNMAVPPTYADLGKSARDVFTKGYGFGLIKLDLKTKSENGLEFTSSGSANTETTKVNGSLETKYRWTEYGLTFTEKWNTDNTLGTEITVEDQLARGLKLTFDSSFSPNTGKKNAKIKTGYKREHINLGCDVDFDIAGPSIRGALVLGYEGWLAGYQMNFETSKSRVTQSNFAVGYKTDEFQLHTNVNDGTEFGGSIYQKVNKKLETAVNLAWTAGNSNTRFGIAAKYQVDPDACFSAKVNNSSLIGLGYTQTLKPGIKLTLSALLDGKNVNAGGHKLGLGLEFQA

Legend:
[1] = molecular target: Bcl-2 (mouse) (mouse (endogenous in hippocampus)) (UniProt P10417); experiment: co-IP
[2] = molecular target: glucocorticoid receptor (mouse) (mouse (endogenous in hippocampus)) (UniProt P06537); experiment: co-IP

**Q.** For “voltage-dependent anion-selective channel 1 (mouse) (from UniProt Q60932)”, which binding [1] is on record?
**A.** The binding was “binds”.

**Q.** And the binding [2]?
**A.** The binding was “binds”.

No constants are given. Whether binding was seen depends on the method and setting. Binding seen in cells or lysates may run through a third protein. Binding calls can cover weak binding; strength is not graded here.
